Measured values: publication PMC13107022
Results are given in words; binding and its absence hold for the method and conditions named. Binding seen in cells or lysates may run through a third protein. Some entries that bind do so weakly or less than the wild type. Tags and fused reporters may be left off the sequences shown.

Chains of the proteins cited; added tags and fusions are not shown.
UniProt O00505: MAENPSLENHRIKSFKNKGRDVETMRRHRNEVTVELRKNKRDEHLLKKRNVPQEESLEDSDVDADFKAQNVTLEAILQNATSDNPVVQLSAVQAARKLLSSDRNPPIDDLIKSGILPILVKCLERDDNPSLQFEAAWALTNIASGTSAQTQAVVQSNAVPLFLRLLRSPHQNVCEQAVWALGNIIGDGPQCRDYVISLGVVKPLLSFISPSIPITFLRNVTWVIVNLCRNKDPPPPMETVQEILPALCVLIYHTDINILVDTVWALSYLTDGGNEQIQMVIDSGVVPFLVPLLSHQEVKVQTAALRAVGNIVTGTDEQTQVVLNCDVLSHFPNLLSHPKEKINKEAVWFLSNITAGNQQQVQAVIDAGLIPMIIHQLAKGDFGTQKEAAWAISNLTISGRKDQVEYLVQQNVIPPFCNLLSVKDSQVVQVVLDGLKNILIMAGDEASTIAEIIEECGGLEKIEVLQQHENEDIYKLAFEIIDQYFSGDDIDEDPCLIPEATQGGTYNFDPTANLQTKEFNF
UniProt Q9Y4B6: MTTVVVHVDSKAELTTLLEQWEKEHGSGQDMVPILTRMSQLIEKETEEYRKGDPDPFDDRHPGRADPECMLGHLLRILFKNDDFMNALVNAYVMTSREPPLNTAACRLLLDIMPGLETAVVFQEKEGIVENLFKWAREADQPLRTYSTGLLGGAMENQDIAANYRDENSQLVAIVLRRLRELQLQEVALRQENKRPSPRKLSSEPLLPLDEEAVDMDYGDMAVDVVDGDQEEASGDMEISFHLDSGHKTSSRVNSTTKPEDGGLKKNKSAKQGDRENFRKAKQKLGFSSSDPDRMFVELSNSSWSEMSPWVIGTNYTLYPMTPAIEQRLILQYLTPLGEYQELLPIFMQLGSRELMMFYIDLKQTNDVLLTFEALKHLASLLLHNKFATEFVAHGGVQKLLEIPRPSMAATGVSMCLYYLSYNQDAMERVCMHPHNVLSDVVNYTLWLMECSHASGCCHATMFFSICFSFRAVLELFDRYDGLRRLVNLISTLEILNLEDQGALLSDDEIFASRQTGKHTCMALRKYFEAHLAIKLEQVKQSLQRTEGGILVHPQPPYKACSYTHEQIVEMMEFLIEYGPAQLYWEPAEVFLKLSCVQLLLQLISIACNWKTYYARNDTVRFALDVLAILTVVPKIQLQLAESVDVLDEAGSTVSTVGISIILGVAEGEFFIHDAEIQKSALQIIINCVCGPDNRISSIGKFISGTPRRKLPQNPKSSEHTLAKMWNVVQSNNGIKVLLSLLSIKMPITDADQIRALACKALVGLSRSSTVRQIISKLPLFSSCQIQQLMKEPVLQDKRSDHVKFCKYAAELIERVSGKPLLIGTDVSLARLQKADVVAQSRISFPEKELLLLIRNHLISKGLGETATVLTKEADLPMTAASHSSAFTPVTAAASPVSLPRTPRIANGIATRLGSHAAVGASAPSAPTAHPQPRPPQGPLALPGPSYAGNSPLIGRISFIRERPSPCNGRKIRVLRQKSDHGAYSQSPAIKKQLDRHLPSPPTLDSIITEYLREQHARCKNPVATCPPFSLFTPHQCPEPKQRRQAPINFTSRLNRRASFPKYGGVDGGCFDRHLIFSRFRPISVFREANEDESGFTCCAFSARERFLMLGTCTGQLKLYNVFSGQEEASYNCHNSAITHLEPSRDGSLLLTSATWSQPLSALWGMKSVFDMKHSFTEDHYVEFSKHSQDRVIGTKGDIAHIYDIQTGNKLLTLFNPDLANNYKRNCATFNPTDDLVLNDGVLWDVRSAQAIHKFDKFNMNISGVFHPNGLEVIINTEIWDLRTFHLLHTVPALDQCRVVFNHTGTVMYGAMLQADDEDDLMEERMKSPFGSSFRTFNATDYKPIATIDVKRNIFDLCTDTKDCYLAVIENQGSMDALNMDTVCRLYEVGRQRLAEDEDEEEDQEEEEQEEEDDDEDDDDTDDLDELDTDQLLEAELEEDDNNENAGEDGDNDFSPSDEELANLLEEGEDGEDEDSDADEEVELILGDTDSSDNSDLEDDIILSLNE

Key:
[1] = target: T1, MBP-RAG1 (full-length human RAG1 with N-terminal maltose-binding protein tag) (human) (UniProt P15918); assay: pull-down; MBP pull-down: HEK293T co-transfected with MBP-fused RAG1/2 and HA-tagged VprBP; same procedure as the GST pull-down but dextrin beads to enrich MBP-tagged proteins; western blot
T1 sequence: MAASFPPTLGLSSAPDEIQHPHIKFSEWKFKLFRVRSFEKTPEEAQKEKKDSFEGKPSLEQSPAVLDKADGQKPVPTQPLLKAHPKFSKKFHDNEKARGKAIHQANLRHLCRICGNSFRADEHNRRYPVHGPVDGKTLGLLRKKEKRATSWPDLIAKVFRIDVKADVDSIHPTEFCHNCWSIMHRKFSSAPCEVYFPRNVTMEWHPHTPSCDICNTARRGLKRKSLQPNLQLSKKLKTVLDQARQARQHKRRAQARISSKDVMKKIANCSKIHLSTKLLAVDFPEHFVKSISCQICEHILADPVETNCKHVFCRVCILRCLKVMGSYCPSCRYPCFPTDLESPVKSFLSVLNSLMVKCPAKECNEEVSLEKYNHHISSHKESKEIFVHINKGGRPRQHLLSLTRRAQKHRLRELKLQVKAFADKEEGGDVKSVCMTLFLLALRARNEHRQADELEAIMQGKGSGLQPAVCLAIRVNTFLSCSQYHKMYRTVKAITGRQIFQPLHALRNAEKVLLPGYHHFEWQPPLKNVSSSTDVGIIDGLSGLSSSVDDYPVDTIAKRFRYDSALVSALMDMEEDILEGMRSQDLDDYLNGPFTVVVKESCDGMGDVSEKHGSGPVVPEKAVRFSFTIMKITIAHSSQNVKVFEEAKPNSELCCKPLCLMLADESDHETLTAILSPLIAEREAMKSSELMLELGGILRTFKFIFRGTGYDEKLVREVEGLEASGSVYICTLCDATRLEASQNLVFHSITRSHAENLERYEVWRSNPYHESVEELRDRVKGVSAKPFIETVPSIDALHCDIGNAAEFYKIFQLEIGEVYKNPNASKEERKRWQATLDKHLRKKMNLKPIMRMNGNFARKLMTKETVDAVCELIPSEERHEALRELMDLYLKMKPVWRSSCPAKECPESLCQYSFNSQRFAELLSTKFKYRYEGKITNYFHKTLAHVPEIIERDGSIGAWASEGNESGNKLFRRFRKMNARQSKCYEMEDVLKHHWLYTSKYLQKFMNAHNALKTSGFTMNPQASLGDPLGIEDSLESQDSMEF

[2] = target: GST-KPNA3 (Karyopherin Subunit Alpha 3 with N-terminal GST tag) (human) (UniProt O00505); assay: pull-down; in vivo GST pull-down: HEK293T co-transfected with MBP-tagged RAG1/2 and GST-tagged target protein; lysis in 50 mM Tris-HCl pH 7.5, 150 mM NaCl, 1% NP-40; glutathione agarose beads, 4°C, 2 h; western blot
[3] = target: GST-KPNA3 (Karyopherin Subunit Alpha 3 with N-terminal GST tag) (human) (UniProt O00505); assay: pull-down; in vivo GST pull-down for subunit selectivity: GST-KPNA3 or GST-NAA40 examined with MBP-RAG1 and with MBP-RAG2 (Supplementary Figure S6)
[4] = target: T2, GST-NUP37 (Nucleoporin 37 with N-terminal GST tag) (human) (UniProt Q8NFH4); assay: pull-down; in vivo GST pull-down: HEK293T co-transfected with MBP-tagged RAG1/2 and GST-tagged target protein; lysis in 50 mM Tris-HCl pH 7.5, 150 mM NaCl, 1% NP-40; glutathione agarose beads, 4°C, 2 h; western blot
T2 sequence: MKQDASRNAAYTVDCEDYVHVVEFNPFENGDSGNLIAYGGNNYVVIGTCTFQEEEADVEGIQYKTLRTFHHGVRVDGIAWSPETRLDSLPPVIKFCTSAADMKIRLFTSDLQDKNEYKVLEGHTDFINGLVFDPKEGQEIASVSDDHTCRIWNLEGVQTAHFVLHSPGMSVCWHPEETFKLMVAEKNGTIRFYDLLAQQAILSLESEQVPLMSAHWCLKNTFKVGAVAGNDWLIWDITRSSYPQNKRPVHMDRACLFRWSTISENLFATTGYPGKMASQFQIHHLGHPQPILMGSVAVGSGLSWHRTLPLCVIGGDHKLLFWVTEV

[5] = target: T3, GST-NUP133 (N-terminal GST tag) (human) (UniProt Q8WUM0); assay: as above
T3 sequence: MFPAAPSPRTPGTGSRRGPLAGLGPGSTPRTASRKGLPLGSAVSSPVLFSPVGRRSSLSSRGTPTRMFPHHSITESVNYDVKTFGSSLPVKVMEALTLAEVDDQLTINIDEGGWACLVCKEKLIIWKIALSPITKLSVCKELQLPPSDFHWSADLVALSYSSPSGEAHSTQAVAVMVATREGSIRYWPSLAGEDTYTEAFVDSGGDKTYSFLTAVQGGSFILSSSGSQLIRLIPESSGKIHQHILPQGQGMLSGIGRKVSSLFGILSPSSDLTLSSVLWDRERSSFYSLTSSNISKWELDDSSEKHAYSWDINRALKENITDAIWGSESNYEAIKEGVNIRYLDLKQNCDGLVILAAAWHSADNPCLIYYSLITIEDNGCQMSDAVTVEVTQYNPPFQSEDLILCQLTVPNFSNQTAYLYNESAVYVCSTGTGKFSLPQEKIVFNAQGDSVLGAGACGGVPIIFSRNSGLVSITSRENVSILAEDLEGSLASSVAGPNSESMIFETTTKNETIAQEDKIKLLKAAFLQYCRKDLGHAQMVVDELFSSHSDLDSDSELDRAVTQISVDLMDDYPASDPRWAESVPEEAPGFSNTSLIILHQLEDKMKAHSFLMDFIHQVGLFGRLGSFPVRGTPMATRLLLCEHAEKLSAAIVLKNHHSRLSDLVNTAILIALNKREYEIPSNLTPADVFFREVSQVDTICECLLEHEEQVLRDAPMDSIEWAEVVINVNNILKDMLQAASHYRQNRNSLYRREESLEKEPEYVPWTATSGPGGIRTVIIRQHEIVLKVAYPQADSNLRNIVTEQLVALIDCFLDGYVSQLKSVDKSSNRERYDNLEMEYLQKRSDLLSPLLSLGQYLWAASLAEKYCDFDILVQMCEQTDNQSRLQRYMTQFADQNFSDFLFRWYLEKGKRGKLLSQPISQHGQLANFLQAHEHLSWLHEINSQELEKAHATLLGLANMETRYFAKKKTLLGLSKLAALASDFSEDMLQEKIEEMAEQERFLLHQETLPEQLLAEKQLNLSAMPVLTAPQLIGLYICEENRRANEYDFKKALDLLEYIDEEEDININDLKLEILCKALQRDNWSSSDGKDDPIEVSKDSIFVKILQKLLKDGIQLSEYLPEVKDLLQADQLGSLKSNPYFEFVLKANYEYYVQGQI

HA-tagged VprBP (Vpr-binding protein) (from UniProt Q9Y4B6 1-1507)
binding [1]: binds

B1: MBP-RAG1 (full-length human RAG1 with N-terminal maltose-binding protein tag) (protein, UniProt P15918 1-1043)
chain: MAASFPPTLGLSSAPDEIQHPHIKFSEWKFKLFRVRSFEKTPEEAQKEKKDSFEGKPSLEQSPAVLDKADGQKPVPTQPLLKAHPKFSKKFHDNEKARGKAIHQANLRHLCRICGNSFRADEHNRRYPVHGPVDGKTLGLLRKKEKRATSWPDLIAKVFRIDVKADVDSIHPTEFCHNCWSIMHRKFSSAPCEVYFPRNVTMEWHPHTPSCDICNTARRGLKRKSLQPNLQLSKKLKTVLDQARQARQHKRRAQARISSKDVMKKIANCSKIHLSTKLLAVDFPEHFVKSISCQICEHILADPVETNCKHVFCRVCILRCLKVMGSYCPSCRYPCFPTDLESPVKSFLSVLNSLMVKCPAKECNEEVSLEKYNHHISSHKESKEIFVHINKGGRPRQHLLSLTRRAQKHRLRELKLQVKAFADKEEGGDVKSVCMTLFLLALRARNEHRQADELEAIMQGKGSGLQPAVCLAIRVNTFLSCSQYHKMYRTVKAITGRQIFQPLHALRNAEKVLLPGYHHFEWQPPLKNVSSSTDVGIIDGLSGLSSSVDDYPVDTIAKRFRYDSALVSALMDMEEDILEGMRSQDLDDYLNGPFTVVVKESCDGMGDVSEKHGSGPVVPEKAVRFSFTIMKITIAHSSQNVKVFEEAKPNSELCCKPLCLMLADESDHETLTAILSPLIAEREAMKSSELMLELGGILRTFKFIFRGTGYDEKLVREVEGLEASGSVYICTLCDATRLEASQNLVFHSITRSHAENLERYEVWRSNPYHESVEELRDRVKGVSAKPFIETVPSIDALHCDIGNAAEFYKIFQLEIGEVYKNPNASKEERKRWQATLDKHLRKKMNLKPIMRMNGNFARKLMTKETVDAVCELIPSEERHEALRELMDLYLKMKPVWRSSCPAKECPESLCQYSFNSQRFAELLSTKFKYRYEGKITNYFHKTLAHVPEIIERDGSIGAWASEGNESGNKLFRRFRKMNARQSKCYEMEDVLKHHWLYTSKYLQKFMNAHNALKTSGFTMNPQASLGDPLGIEDSLESQDSMEF
binding [2]: binds
binding [3]: binds

B2: MBP-RAG2 (full-length human RAG2 with N-terminal maltose-binding protein tag) (protein, UniProt P55895 1-527)
chain: MSLQMVTVSNNIALIQPGFSLMNFDGQVFFFGQKGWPKRSCPTGVFHLDVKHNHVKLKPTIFSKDSCYLPPLRYPATCTFKGSLESEKHQYIIHGGKTPNNEVSDKIYVMSIVCKNNKKVTFRCTEKDLVGDVPEARYGHSINVVYSRGKSMGVLFGGRSYMPSTHRTTEKWNSVADCLPCVFLVDFEFGCATSYILPELQDGLSFHVSIAKNDTIYILGGHSLANNIRPANLYRIRVDLPLGSPAVNCTVLPGGISVSSAILTQTNNDEFVIVGGYQLENQKRMICNIISLEDNKIEIREMETPDWTPDIKHSKIWFGSNMGNGTVFLGIPGDNKQVVSEGFYFYMLKCAEDDTNEEQTTFTNSQTSTEDPGDSTPFEDSEEFCFSAEANSFDGDDEFDTYNEDDEEDESETGYWITCCPTCDVDINTWVPFYSTELNKPAMIYCSHGDGHWVHAQCMDLAERTLIHLSAGSNKYYCNEHVEIARALHTPQRVLPLKKPPMKSLRKKGSGKILTPAKKSFLRRLFD
binding [4]: binds
binding [5]: binds weakly

B3: RAG2 core (residues 1–387) (domain or fragment, UniProt P55895 1-387)
chain: MSLQMVTVSNNIALIQPGFSLMNFDGQVFFFGQKGWPKRSCPTGVFHLDVKHNHVKLKPTIFSKDSCYLPPLRYPATCTFKGSLESEKHQYIIHGGKTPNNEVSDKIYVMSIVCKNNKKVTFRCTEKDLVGDVPEARYGHSINVVYSRGKSMGVLFGGRSYMPSTHRTTEKWNSVADCLPCVFLVDFEFGCATSYILPELQDGLSFHVSIAKNDTIYILGGHSLANNIRPANLYRIRVDLPLGSPAVNCTVLPGGISVSSAILTQTNNDEFVIVGGYQLENQKRMICNIISLEDNKIEIREMETPDWTPDIKHSKIWFGSNMGNGTVFLGIPGDNKQVVSEGFYFYMLKCAEDDTNEEQTTFTNSQTSTEDPGDSTPFEDSEEFCFS
binding [4]: binds
